Results as given in US20230083717A1, “METHODS AND COMPOSITIONS FOR PROMOTING ADIPOCYTE BEIGING” (Flagship Pioneering Innovations VI, LLC, priority 2021, published 2023).
At least one structure is not confirmed: it was looked up by name or label, or the drawing left a doubt.

Legend:
[1] = established obesity DIO mouse model (DIO-2); type: in vivo; settings: 0.4 mg/kg SC once daily, DIO mice
human adipocytes = test: snRNAseq of in vitro human adipocytes treated with pioglitazone; type: cell-based; settings: 1 μg pioglitazone between 14-day and 21-day period

Row | SMILES | food intake [1] | UCP1 expression (human adipocytes) | change in adipocyte population (white and beige cell states) (human adipocytes)
1 | CCCCCCCCCCCCCCCC(=O)N[C@@H](CCC(=O)NCCCC[C@H](NC(=O)[C@H](C)NC(=O)[C@H](C)NC(=O)[C@H](CCC(N)=O)NC(=O)CNC(=O)[C@H](CCC(=O)O)NC(=O)[C@H](CC(C)C)NC(=O)[C@H](Cc1ccc(O)cc1)NC(=O)[C@H](CO)NC(=O)[C@H](CO)NC(=O)[C@@H](NC(=O)[C@H](CC(=O)O)NC(=O)[C@H](CO)NC(=O)[C@@H](NC(=O)[C@H](Cc1ccccc1)NC(=O)[C@@H](NC(=O)CNC(=O)[C@H](CCC(=O)O)NC(=O)[C@H](C)NC(=O)[C@@H](N)Cc1cnc[nH]1)[C@@H](C)O)[C@@H](C)O)C(C)C)C(=O)N[C@@H](CCC(=O)O)C(=O)N[C@@H](Cc1ccccc1)C(=O)N[C@H](C(=O)N[C@@H](C)C(=O)N[C@@H](Cc1c[nH]c2ccccc12)C(=O)N[C@@H](CC(C)C)C(=O)N[C@H](C(=O)N[C@@H](CCCNC(=N)N)C(=O)NCC(=O)N[C@@H](CCCNC(=N)N)C(=O)NCC(=O)O)C(C)C)[C@@H](C)CC)C(=O)O [Liraglutide] | significant reduction |  | 
2 | CCc1ccc(CCOc2ccc(CC3SC(=O)NC3=O)cc2)nc1 (stereo not drawn) [pioglitazone] |  | induced | induced
